# The other results are listed elsewhere or left out. Further columns of the screen follow, without active or inactive calls. Compounds called inactive in the main read-out are mostly missing here. Words in brackets tell the shape of the fitted curve; partial curves, single points and poor fits give uncertain potencies.
# Assay: qHTS Assay to Find Inhibitors of Chronic Active B-Cell Receptor Signaling
# Conditions: ABC-DLBCL IkBa-CBG/CBR reporter, luminescence ratio (green luciferase fused to IkBa over red control in TMD8 lymphoma cells), 4 h
# Procedure, shortened: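 Compounds up to 46 uM were incubated four hours with TMD8 cells whose green CBG68 luciferase is fused to IkappaBalpha; red CBR luminescence normalised the signal, and concentration-effect curves were fitted to fusion, red and ratio data.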
# [1] = measured here: CBR red luminescence, cell number
# [2] = measured here: IkBa-CBG green luminescence
SMILES,AC50 [1],AC50 [2]
O=C(NC(=S)Nc1cccc2c(O)cccc12)c1cccc(Br)c1,"11.2 µM [falling, partial curve]",–
Clc1ccccc1C(c1ccccc1)(c1ccccc1)n1ccnc1,"0.794 µM [falling, partial curve, poor fit]",–
COc1ccc(OC)c(/C=C/c2nc3ccccc3[nH]c2=O)c1,"22.4 µM [falling, single point]",–
COc1ccc(OC)c(NC(=O)c2ccccc2NC(=O)c2ccco2)c1,"12.6 µM [falling, partial curve, poor fit]",–
CCC(C(=O)c1ccccc1)N(C(=O)c1ccccc1Cl)N1C(=O)C2C3C=CC(C3)C2C1=O (configuration not stated),"17.8 µM [falling, partial curve, poor fit]",–
NS(=O)(=O)c1ccc(-c2ccc(/C=N/Nc3ccc(C(=O)O)cc3)o2)cc1,"3.98 µM [falling, partial curve, poor fit]",–
CCOc1cc2c(Cl)ncnc2c(OCC)c1OCC,"35.5 µM [falling, single point]",–
Cc1oc(-c2ccccc2)cc1C(=O)Nc1ccccc1,"11.6 µM [rising, partial curve, poor fit]","1.64 µM [rising, full curve, poor fit]"
CC(C)CN(CCCNC(=O)CN1C(=O)COc2ccc(S(=O)(=O)N3CCOCC3)cc21)CC(C)C,"6.31 µM [rising, single point]","5.62 µM [falling, single point]"
CC(=O)c1ccc(NC(=O)c2cnn3ccccc23)cc1,"14.6 µM [falling, partial curve, poor fit]",–
Clc1cccc(-c2nnc(-c3ccno3)o2)c1,"2.82 µM [rising, partial curve, poor fit]",–
FC(F)(F)c1nnc2ccc(Cl)nn12,"14.1 µM [rising, partial curve, poor fit]","35.5 µM [falling, partial curve, poor fit]"
Cc1c(O)c(CN2CCCC2)cc2c3c(c(=O)oc12)CCC3,"22.4 µM [falling, partial curve, poor fit]",–
Cc1cc(C)n(-c2nc3ccccc3c(=O)n2OCC#N)n1,"35.5 µM [falling, single point]","10 µM [falling, partial curve]"
CC(C)CNC(=O)C(=O)N/N=C/c1cccs1,"11.2 µM [falling, single point]",–
Cc1ccc(/C=N/NC(=O)C2=NNC(c3ccccc3)(c3ccccc3)C2)c(O)c1,"14.6 µM [falling, partial curve]",–
COc1ccc(/C=C/C(=O)NC2CCCCCCC2)cc1S(=O)(=O)N1CCOCC1,"2.59 µM [rising, full curve, poor fit]",–
CC(C)CNC(=O)C(=O)Nc1ccc(N(C)C)cc1,"7.31 µM [falling, partial curve]",–
COc1cc(O)cc2occ(-c3ccc(O)cc3)c(=O)c12,"6.31 µM [falling, partial curve]",–
O=C(Nc1ccc(-c2cn3ccsc3n2)cc1)C1CCCC1,"10 µM [falling, partial curve]",–
Cc1ccc(N2NC(=O)/C(=C/c3ccc(-c4ccc(Cl)c(C(=O)O)c4)o3)C2=O)cc1,"10 µM [falling, partial curve, poor fit]",–

SMILES,AC50 [1],AC50 [2]
NNC(=O)c1ccc(NS(=O)(=O)c2ccc(Br)cc2)cc1,"14.1 µM [falling, partial curve]",–
O=C(Nc1cccc2cccnc12)c1ccc(Br)o1,"7.31 µM [rising, partial curve, poor fit]",–
O=C(NCCOc1ccc(F)cc1)c1ccccc1SCc1ccccc1,"29.1 µM [falling, single point]",–
COc1ccc(C(C)n2c(C)c3c(C)nnc(C)c3c2C)cc1 (configuration not stated),"35.5 µM [falling, single point]",–
Cc1ccc2nc(Nc3ccc(Cl)cc3)c3nncn3c2c1,"0.282 µM [rising, full curve, poor fit]",–
CC(C)Cc1nnc(NC(=O)c2ccc([N+](=O)[O-])cc2)s1,"3.98 µM [falling, partial curve]",–
Cc1nn(-c2ccccc2)c2sc(C(=O)n3cccn3)cc12,"0.0891 µM [falling, full curve, poor fit]",–
C=CCOC(=O)c1cn(CC)c2nc(C)ccc2c1=O,"5.62 µM [falling, full curve, poor fit]","12.6 µM [rising, partial curve, poor fit]"
O=C(Nc1nc2ccccc2s1)C1=NN(c2ccccc2)C(=O)CC1,"6.51 µM [falling, partial curve]",–
CCSc1nc2c([nH]c3ccccc32)c(=O)n1C,"0.411 µM [falling, full curve]",–
COc1ccc(N2CCN(C(=O)c3cc(C4CC4)nn3-c3ccccc3)CC2)cc1,"29.1 µM [rising, single point]",–
CCOc1ccc(C(=O)Nc2ccccc2N2CCOCC2)cc1,"35.5 µM [rising, single point]",–
CCc1nc2c(c(=O)c3ccccc3n2C)c(=O)n1CCc1ccc(OC)cc1,"2.59 µM [falling, full curve]",–
Cc1nc(NC(=O)COc2ccccc2)sc1C(=O)Nc1cccc(Cl)c1,"8.91 µM [falling, partial curve, poor fit]",–
O=C(CCN1CCc2ccccc2C1)Nc1ccccc1,"15.8 µM [falling, single point]",–
CCOc1ccccc1NC(=O)c1ccc(S(=O)(=O)N(C)C)cc1,"20.6 µM [falling, partial curve, poor fit]",–
CN1CCN(c2ccccc2/C=C2/C(=O)Nc3ccccc32)CC1,"10 µM [falling, single point]",–
C=CCNc1nc(Nc2ccc(Cl)cc2)nc(OC)n1,"3.98 µM [rising, single point]",–
CC(/C=N\NC(=O)c1ccc2c(c1)OCO2)c1ccccc1 (configuration not stated),"3.55 µM [falling, partial curve]",–
COc1ccc(Cn2cccc(NC(=O)Nc3cccc(OC)c3)c2=O)cc1,"7.08 µM [falling, full curve]",–
O=C(COC(=O)c1n[nH]c2ccccc12)NC(=O)NC1CCCC1,"23.1 µM [falling, partial curve, poor fit]",–

SMILES,AC50 [1],AC50 [2]
CCSc1nnc(-c2cnn(-c3ccccc3)c2-n2cccc2)n1C,"0.92 µM [falling, full curve, poor fit]",–
O=C(CCc1nnc(Cc2ccc3c(c2)OCO3)o1)NCc1nc2ccccc2s1,"35.5 µM [falling, single point]",–
CCOC(=O)c1[nH]c(C)c(/C(O)=C2\C(=O)C(=O)N(CCN(C)C)C2c2ccncc2)c1C (configuration not stated),"0.103 µM [falling, partial curve, poor fit]",–
NNC(=O)CN1C(c2ccc(Br)cc2)=Nc2ccc(Br)cc2C1c1ccccc1 (configuration not stated),"4.11 µM [falling, partial curve, poor fit]",–
Cc1c(/C=N/NC(=O)c2cc(Br)ccc2O)c(=O)n(C)c(=O)n1C,"0.447 µM [falling, full curve, poor fit]",–
CC(C(=O)Nc1ccccc1-c1ccccc1)N1CCN(C(=O)c2ccccc2)CC1 (configuration not stated),"28.2 µM [falling, single point]",–
CCOC(=O)c1[nH]c(C)c(C(=O)OCC(=O)NC2CCS(=O)(=O)C2)c1C (configuration not stated),"35.5 µM [falling, single point]",–
O=C(NCCCN1CCOCC1)c1ccc2c(c1)N(Cc1ccccc1F)C(=O)c1ccccc1S2=O (configuration not stated),"28.2 µM [falling, partial curve, poor fit]",–
Nc1c(C(=O)Nc2ccccc2F)sc2nc(-c3ccco3)ccc12,"15.8 µM [falling, single point]",–
O=[N+]([O-])c1ccc(O)c(/C=N/Nc2ccc(Cl)nn2)c1,"2 µM [falling, full curve]",–
CCCc1nnc(NC(=O)CCC(=O)N2CCN(c3ccccn3)CC2)s1,"3.16 µM [rising, partial curve, poor fit]",–
O=C(NCc1cccc(Cl)c1)NC(=O)c1csc([N+](=O)[O-])c1,"35.5 µM [rising, single point]",–
COc1ccc(S(=O)(=O)N2CCOCC2)cc1C(=O)Nc1cc(C)on1,"14.6 µM [rising, partial curve]",–
Cc1c(Cl)cccc1NC(=S)NNS(=O)(=O)c1ccc([N+](=O)[O-])cc1,"0.891 µM [falling, partial curve, poor fit]",–
NNC(=O)CN1C(c2ccccc2Br)=Nc2ccc(Br)cc2C1c1ccccc1 (configuration not stated),"7.31 µM [falling, partial curve]",–
CCOC(=O)CN1C(=O)S/C(=C/c2cc(C)n(-c3ccccn3)c2C)C1=O,"16.4 µM [rising, single point]",–
CCOC(=O)c1ccc(Nc2nc(-c3cccnc3)nc3ccccc23)cc1,"17.8 µM [falling, partial curve, poor fit]",–
COc1ccc(/C=N/NC(=O)C2c3ccccc3Oc3ccccc32)c(OC)c1,"29.1 µM [rising, single point]",–
N#Cc1cn(-c2ccccc2)nc1-c1cc2ccccc2oc1=O,"0.116 µM [rising, full curve, poor fit]",–
O=C(Nc1ccc(F)c([N+](=O)[O-])c1)c1ccc2c(c1)C(=O)OC2=O,"10 µM [falling, partial curve]",–

# Part of the list above, with bars between the fields:
SMILES | AC50 [1] | AC50 [2]
Nc1c(C(=O)Nc2ccccc2F)sc2nc(-c3ccco3)ccc12 | 15.8 µM [falling, single point] | –
O=[N+]([O-])c1ccc(O)c(/C=N/Nc2ccc(Cl)nn2)c1 | 2 µM [falling, full curve] | –
CCCc1nnc(NC(=O)CCC(=O)N2CCN(c3ccccn3)CC2)s1 | 3.16 µM [rising, partial curve, poor fit] | –
O=C(NCc1cccc(Cl)c1)NC(=O)c1csc([N+](=O)[O-])c1 | 35.5 µM [rising, single point] | –

# Reference: PubChem BioAssay AID493014 (National Center for Advancing Translational Sciences (NCATS), 2011)
